# Assay results: patent publication US20230013227A1, “ARYL-ANILINE AND HETEROARYL-ANILINE COMPOUNDS FOR TREATMENT OF BIRTHMARKS” (NFlection Therapeutics, Inc., priority 2018, published 2023)
# At least one compound was matched to its structure with a doubt left.
# System: p-ERK
# Assay: Human birthmark explant protocol (Example 1): p-ERK in nevus sebaceous explants
# Format: cell-based
# Conditions: FIGS. 3 and 4; topical gel, 1% by weight compound, 1% hydroxypropyl cellulose in DMSO/PEG 400 1:1, 4 hours
# Excerpt: Study Objectives: The primary objective was to assess the efficacy of a topically-formulated compound described herein in suppressing p-ERK, a downstream biomarker of RAS/MAPK signaling in epidermal nevus and nevus sebaceous. The secondary objectives was to assess permeability (where the compound was applied topically) in birthmark explants treated with a compound described herein.
# Sample Collection and Eligibility: Discarded human birthmark (epidermal nevus and nevus sebaceous) samples were obtained from the Stanford Surgery Clinic, using an approved human subjects protocol (Stanford IRB #18325). Specimens were identified under the direction of the Principal Investigator and placed in cell proliferation media (DMEM/F12 containing penicillin/streptomycin (0.1%); fungizone (40 μg/mL); B27 (without vitamin A).
# Samples were primary, untreated birthmarks of at least 6 mm in size; samples were excised by a shave, punch biopsy or elliptical excision. Specimens were identified under the direction of the Principal Investigator. Specimens were chopped into 2 mm fragments and placed in 24-well plates containing cell proliferation media (DMEM/F12 containing penicillin/streptomycin (0.1%); fungizone (40 μg/mL); B27 (without vitamin A) and submerged in media with drug. For topical gel application, samples were placed in 96 well plates with epidermal surface exposed to air. […]
smiles,measurement,value
"CC(=O)Nc1cccc(-n2c(=O)n(C3CC3)c(=O)c3c(Nc4ccc(I)cc4F)n(C)c(=O)c(C)c32)c1 [Trametinib, reference compound]",suppression of p-ERK in human nevus sebaceous explants,suppression of p-ERK
